Test results reported in patent US12173004B2, “Pharmaceutical compositions comprising heterocycle fused gamma carboline prodrugs” (INTRA-CELLULAR THERAPIES, INC., priority 2017, dated 2024).
At least one structure is not confirmed: it was looked up by name or label, or the drawing left a doubt.

By UniProt entry, the sequences of proteins in these tests, tags left out. Residues count along the entry.
UniProt P23818, 19-907 limits assumed: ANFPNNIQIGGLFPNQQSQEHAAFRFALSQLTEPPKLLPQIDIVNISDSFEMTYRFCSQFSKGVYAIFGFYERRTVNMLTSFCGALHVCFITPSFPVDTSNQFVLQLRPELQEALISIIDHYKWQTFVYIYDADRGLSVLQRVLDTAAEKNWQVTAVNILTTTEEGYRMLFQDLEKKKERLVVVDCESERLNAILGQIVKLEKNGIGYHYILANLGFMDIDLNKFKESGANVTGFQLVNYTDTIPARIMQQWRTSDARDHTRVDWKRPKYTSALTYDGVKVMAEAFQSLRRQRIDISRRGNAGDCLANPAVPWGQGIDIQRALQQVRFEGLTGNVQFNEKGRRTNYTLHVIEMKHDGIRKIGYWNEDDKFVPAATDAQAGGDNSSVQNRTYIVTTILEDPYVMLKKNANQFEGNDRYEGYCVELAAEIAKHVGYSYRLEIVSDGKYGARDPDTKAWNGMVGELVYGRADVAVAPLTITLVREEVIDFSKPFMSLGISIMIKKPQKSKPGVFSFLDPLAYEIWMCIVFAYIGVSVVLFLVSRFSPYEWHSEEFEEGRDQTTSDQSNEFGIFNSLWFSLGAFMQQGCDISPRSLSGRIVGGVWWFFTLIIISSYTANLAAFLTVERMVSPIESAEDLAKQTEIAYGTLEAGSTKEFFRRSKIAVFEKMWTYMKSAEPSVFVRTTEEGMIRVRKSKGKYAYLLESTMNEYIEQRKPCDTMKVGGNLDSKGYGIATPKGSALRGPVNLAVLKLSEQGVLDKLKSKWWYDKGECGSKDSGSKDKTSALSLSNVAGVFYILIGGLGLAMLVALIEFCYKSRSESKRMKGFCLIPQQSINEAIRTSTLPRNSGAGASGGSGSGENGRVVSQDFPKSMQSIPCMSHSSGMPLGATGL
UniProt Q01097, 27-1482 limits assumed: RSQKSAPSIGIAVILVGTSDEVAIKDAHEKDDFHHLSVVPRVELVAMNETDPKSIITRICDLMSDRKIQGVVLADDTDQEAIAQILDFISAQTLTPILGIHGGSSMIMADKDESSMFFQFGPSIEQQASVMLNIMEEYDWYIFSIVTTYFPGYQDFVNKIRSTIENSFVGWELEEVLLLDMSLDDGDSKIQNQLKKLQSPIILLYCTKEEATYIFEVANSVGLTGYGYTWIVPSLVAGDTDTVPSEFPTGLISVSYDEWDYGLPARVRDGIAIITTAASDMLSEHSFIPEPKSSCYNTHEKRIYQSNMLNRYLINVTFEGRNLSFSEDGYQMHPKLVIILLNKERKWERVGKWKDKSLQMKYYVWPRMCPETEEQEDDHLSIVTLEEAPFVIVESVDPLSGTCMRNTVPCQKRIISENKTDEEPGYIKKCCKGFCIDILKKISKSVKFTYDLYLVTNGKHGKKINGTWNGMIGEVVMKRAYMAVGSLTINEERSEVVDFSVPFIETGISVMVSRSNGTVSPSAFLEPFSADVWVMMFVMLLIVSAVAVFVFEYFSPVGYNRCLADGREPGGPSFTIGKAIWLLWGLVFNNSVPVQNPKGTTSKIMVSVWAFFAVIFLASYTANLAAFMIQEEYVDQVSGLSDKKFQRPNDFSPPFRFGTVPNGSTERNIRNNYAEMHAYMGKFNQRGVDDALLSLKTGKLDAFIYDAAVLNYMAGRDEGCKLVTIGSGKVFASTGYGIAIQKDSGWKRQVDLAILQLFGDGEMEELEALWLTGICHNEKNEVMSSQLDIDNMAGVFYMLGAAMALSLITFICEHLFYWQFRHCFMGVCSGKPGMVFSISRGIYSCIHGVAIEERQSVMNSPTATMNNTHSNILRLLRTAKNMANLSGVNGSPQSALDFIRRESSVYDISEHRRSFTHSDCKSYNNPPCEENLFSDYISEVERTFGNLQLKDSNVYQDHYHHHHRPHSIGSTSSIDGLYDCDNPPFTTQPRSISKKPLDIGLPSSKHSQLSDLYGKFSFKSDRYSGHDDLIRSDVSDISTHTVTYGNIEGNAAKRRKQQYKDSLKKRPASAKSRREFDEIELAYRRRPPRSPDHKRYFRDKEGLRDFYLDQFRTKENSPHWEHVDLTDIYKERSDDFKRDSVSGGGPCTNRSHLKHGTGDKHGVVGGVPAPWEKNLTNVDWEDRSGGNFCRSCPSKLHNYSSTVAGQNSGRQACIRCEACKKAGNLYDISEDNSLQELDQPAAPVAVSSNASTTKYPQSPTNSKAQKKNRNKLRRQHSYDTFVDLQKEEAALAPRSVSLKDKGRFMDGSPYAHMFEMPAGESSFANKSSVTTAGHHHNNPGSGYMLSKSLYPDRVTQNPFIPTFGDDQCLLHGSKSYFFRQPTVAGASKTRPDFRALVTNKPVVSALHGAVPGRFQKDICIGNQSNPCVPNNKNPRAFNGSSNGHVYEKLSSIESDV

Columns and labels:
Format in all cases: in vivo, mice
GluR1 = GluR1 (Mus musculus (Mouse), UniProt P23818); assay: CNS phosphoprotein profile, nucleus accumbens: GluR1; details: 3 mg/kg
Protocol: (§1) A comprehensive molecular phosphorylation study is also carried out to examine the central nervous system (CNS) profile of the compounds of Example 1 and Example 2. The extent of protein phosphorylation for selected key central nervous system proteins is measured in mice nucleus accumbens.
(§2) Mice were killed 30 minutes to 2 hours post-injection by focused microwave cranial irradiation, which preserves brain phosphoprotein as it exists at the time of death. Nucleus accumbens was then dissected from each mouse brain, sliced and frozen in liquid nitrogen. Samples were further prepared for phosphoprotein analysis via SDS-PAGE electrophoresis followed by phosphoprotein-specific immunoblotting, as described in Zhu H, et al., Brain Res. 2010 Jun. 25; 1342:11-23. Phosphorylation at each site was quantified, normalized to total levels of the protein (non-phosphorylated), and expressed as percent of the level of phosphorylation in vehicle-treated control mice.

NR2B = NR2B (Mus musculus (Mouse), UniProt Q01097); assay: CNS phosphoprotein profile, nucleus accumbens: NR2B; details: 3 mg/kg, at 30-60 minutes
Protocol: as §1, §2

ERK2 = ERK2 (Mus musculus (Mouse), UniProt P63085); assay: CNS phosphoprotein profile, nucleus accumbens: ERK2; details: 3 mg/kg
Protocol: as §1, §2

[1] = target: TH (tyrosine hydroxylase) (Mus musculus (Mouse), UniProt P24529); assay: CNS phosphoprotein profile, nucleus accumbens: TH; details: 3 mg/kg, at 30 minutes or 60 minutes
Protocol: as §1, §2

## O=C1CN2c3c(cccc3[C@@H]3CN(CCCOc4ccc(F)cc4)CC[C@@H]32)N1 [Example 2, (6bR,10aS)-8-(3-(4-fluorophenoxy)propyl)-6b,7,8,9,10,10a-hexahydro-1H-pyrido[3′,4′:4,5]pyrrolo[1,2,3-de]quinoxalin-2(3H)-one]
GluR1
  GluR1 phosphorylation at Ser845: slight increase
NR2B
  effect on NR2B phosphorylation at Tyr1472: neither the compound of Example 1 nor of Example 2 has a significant effect
ERK2
  ERK2 phosphorylation at Thr183 and Tyr185: slight decrease
[1]
  effect on tyrosine hydroxylase phosphorylation at Ser40: neither the compound of Example 1 nor of Example 2 has a significant effect
